The other results are listed elsewhere or left out. These are further read-outs of the screen, such as a control signal, another cell line or another target. No call is given for them.

Seven molecules from PubChem BioAssay AID651900 (Broad Institute, 2012) can be followed below.

The test can be described thus: NIH3T3 cell viability loss – plate reader, cherry-pick, two tests, cytotoxicity control, dose response (AID 651900). Particulars: test 2 concentration series, at 26 µM.
On to `COc1ccc2c(c1)c(C(=O)CN1CCC3(CC1)OCCO3)c(C)n2Cc1ccccc1`, for which the activity is -9.94%.

Consider `COc1cc2c3cc1Oc1cc(ccc1O)C[C@@H]1c4c(cc(OC)c(O)c4Oc4cccc(c4)C[C@@H]3N(C)CC2)CC[N+]1(C)C`, for which the activity came out at 2.02%.

Take `CCc1nc2ccc(Br)cc2c(=O)n1-c1ccccc1C(F)(F)F`: the activity was 0.608%.

In the case of `CC(=O)N1CCN(c2ccc([N+](=O)[O-])cc2C=C2C(=O)NC(=O)NC2=O)CC1`, the activity is 8.3%.

Take `O=[N+]([O-])c1ccc(C[n+]2c(-c3ccccc3)cc(-c3ccccc3)cc2-c2ccccc2)cc1`: the activity was 0.126%.

As for `O=c1[nH]c(N2CCN(Cc3ccc4c(c3)OCO4)CC2)nc2c1CCC2`, the activity was -6.66%.

With `Cc1nc2nc(SCC(=O)N3CCC4(CC3)OCCO4)nn2c(C)c1Cc1ccccc1`, the activity amounted to 7.84%.
